In the supplement of paper PMC11006884:
What follows is the remainder of the data, with few or none of the targets with a hit. The data scatter; read single values as rough. The list shows a part of the results, in another mix than the full data.

Compound: COC(=O)/C=C/c1ccccc1 [methyl cinnamate]
Experiment: log2 ratio of iodoacetamide-alkyne labeling of the cysteine site, DMSO over compound (competition); higher = stronger covalent engagement of the cysteine by the compound, active = 1 or more
Details: 500 µM; treatment time 1 h; system: HEK293T cell lysate
Outline: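 Electrophile (500 µM) or vehicle was added to HEK293T lysate (2 mg/mL) for 1 h at ambient temperature before iodoacetamide alkyne labelling (1 h) and click coupling to sCIP-TMT reagents. After pooling, overnight trypsin digestion at 37 °C, streptavidin enrichment and acid elution, peptides were measured by Orbitrap Eclipse LC-MS/MS with FAIMS and quantified in FragPipe. Each cysteine's log2 competition ratio compares mean control-channel with mean compound-channel reporter intensity, control over compound. Data came from duplicate channels across three replicates, excluding cysteines quantified in only one replicate.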

log2 ratio of iodoacetamide-alkyne labeling, inactive:
ZNF644 C1206 (UniProt Q9H582) 0.0266
HEATR1 C631 (UniProt Q9H583) -0.14
C17orf75 C288 (UniProt Q9HAS0) 0.213
STRN4 C580 (UniProt Q9NRL3) -0.314
MBIP C243 (UniProt Q9NS73) 0.122
XAB2 C86 (UniProt Q9HCS7) -0.309
EXOSC4 C74 (UniProt Q9NPD3) 0.281
UniProt Q9H7C9_C122 0.235
ATP13A1 C574 (UniProt Q9HD20) -0.0619
EXOSC5 C26 (UniProt Q9NQT4) 0.173
NEK6 C40 (UniProt Q9HC98) 0.154
SMARCAD1 C772 (UniProt Q9H4L7) 0.115
MDN1 C1394 (UniProt Q9NU22) 0.0468
LUC7L C59 (UniProt Q9NQ29) 0.0638
SMC4 C190 (UniProt Q9NTJ3) 0.0701
VTA1 C38 (UniProt Q9NP79) 0.129
OLA1 C55 (UniProt Q9NTK5) 0.215
TFB2M C383 (UniProt Q9H5Q4) 0.199
OSTC C14 (UniProt Q9NRP0) 0.0328
FARSB C362 (UniProt Q9NSD9) 0.081
RNPEP C254 (UniProt Q9H4A4) -0.0451
UBQLN4 C29 (UniProt Q9NRR5) 0.493
CNOT10 C504 (UniProt Q9H9A5) 0.0315
SARS2 C64 (UniProt Q9NP81) 0.0544
BICC1 C621 (UniProt Q9H694) 0.495
UniProt Q9H6R7_C574 0.216
DCP1A C149 (UniProt Q9NPI6) 0.00251
CD320 C139 (UniProt Q9NPF0) 0.373
KIF15 C862 (UniProt Q9NS87) 0.0291
RNPEP C223 (UniProt Q9H4A4) -0.0804
DDX21 C161 (UniProt Q9NR30) 0.154
PHAX C51 (UniProt Q9H814) 0.416
LANCL2 C169 (UniProt Q9NS86) 0.267
OLA1 C117 (UniProt Q9NTK5) 0.176
UPF2 C1107 (UniProt Q9HAU5) 0.00534
UniProt Q9H6R7_C472 0.257
SMC4 C110 (UniProt Q9NTJ3) 0.0647

Quoted from the results shown for reference:
log2 ratio of iodoacetamide-alkyne labeling, inactive:
HEATR1 C631 (UniProt Q9H583) -0.14
C17orf75 C288 (UniProt Q9HAS0) 0.213
STRN4 C580 (UniProt Q9NRL3) -0.314
MBIP C243 (UniProt Q9NS73) 0.122
XAB2 C86 (UniProt Q9HCS7) -0.309
EXOSC4 C74 (UniProt Q9NPD3) 0.281
UniProt Q9H7C9_C122 0.235
ATP13A1 C574 (UniProt Q9HD20) -0.0619
EXOSC5 C26 (UniProt Q9NQT4) 0.173
